PubChem BioAssay AID1259254 | NCATS, 2017
Screen: 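Finding genes that stop cells copying their DNA twice in one cycle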 (primary screen). Cells: human HCT116 colorectal cancer cells. Reagent: single siRNA against human genes. Duration: 3 days. Detection: 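Nuclei stained with Hoechst and imaged; cell-cycle phase assigned by DNA content; G2 share scaled per plate, non-targeting siRNA 0%, GMNN siRNA 100%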. Scale: G2 robust z-score and G2 cells, % of GMNN control: higher = more G2 cells, more excess DNA replication; raw share of cells in G2: higher = larger share of cells with G2 DNA content. Hit rule: 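Active siRNAs have a G2 robust z of 5 or more median absolute deviations over the median, which in these data means about 38% or higher of GMNN control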.
The deposit covers about 59,000 reagents; below is a part drawn at random. About 1,550 of all reagents (2.6%) count as active. 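G2 share is only a proxy for re-replication; each gene was hit by three separate siRNAs, and active genes were retested.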 Raw values vary from plate to plate and are shown uncorrected. The numbers tell different reagents against one gene apart. The record does not give: the amount of reagent.

G2 robust z-score | G2 cells, % of GMNN control | raw share of cells in G2 (%) | Outcome | Gene | reagent no.
0.304 | 5.1 | 6.15 | inactive | CREBZF | 1
-1.12 | -4.89 | 3.62 | inactive | CREBZF | 2
2.36 | 19.6 | 11.3 | inactive | CREBZF | 3
-1.37 | -6.68 | 2.65 | inactive | ESX1 | 1
-1.17 | -5.29 | 2.28 | inactive | ESX1 | 2
-1.02 | -4.21 | 3.23 | inactive | ESX1 | 3
1.14 | 11 | 9.02 | inactive | EIF2AK3 | 1
0.385 | 5.67 | 7.25 | inactive | EIF2AK3 | 2
-0.575 | -1.08 | 3.34 | inactive | EIF2AK3 | 3
2.18 | 18.3 | 9.25 | inactive | TESC | 1
2.72 | 22.1 | 15.9 | inactive | TESC | 2
-0.107 | 2.21 | 4.33 | inactive | TESC | 3
-0.712 | -2.05 | 3.14 | inactive | KBTBD3 | 1
-0.349 | 0.513 | 3.07 | inactive | KBTBD3 | 2
-0.285 | 0.961 | 3.4 | inactive | KBTBD3 | 3
1.05 | 10.4 | 7.86 | inactive | ACO1 | 1
-0.466 | -0.313 | 4.96 | inactive | ACO1 | 2
3.51 | 27.7 | 14.1 | inactive | ACO1 | 3
-0.0845 | 2.37 | 7.41 | inactive | PDIA5 | 1
0.0934 | 3.62 | 7.27 | inactive | PDIA5 | 2
1.19 | 11.3 | 7.51 | inactive | PDIA5 | 3
1.39 | 12.8 | 11.3 | inactive | CBLIF | 1
-0.292 | 0.913 | 4.42 | inactive | CBLIF | 2
-0.365 | 0.4 | 3.68 | inactive | CBLIF | 3
-0.281 | 0.99 | 3.76 | inactive | HPX-2 (retired record) | 1
-1.02 | -4.23 | 1.61 | inactive | HPX-2 (retired record) | 2
-0.865 | -3.12 | 1.85 | inactive | HPX-2 (retired record) | 3
-0.629 | -1.46 | 5.04 | inactive | ARAP3 | 1
-0.26 | 1.14 | 4.75 | inactive | ARAP3 | 2
-0.34 | 0.572 | 4.43 | inactive | ARAP3 | 3
-0.294 | 0.9 | 4.08 | inactive | DIPK1A | 1
0.774 | 8.41 | 7.06 | inactive | DIPK1A | 2
-0.275 | 1.03 | 5.08 | inactive | DIPK1A | 3
-0.774 | -2.48 | 3.41 | inactive | SLC33A1 | 1
2.3 | 19.1 | 12 | inactive | SLC33A1 | 2
-1.21 | -5.52 | 2.73 | inactive | SLC33A1 | 3
-0.992 | -4.01 | 3.12 | inactive | PIGB | 1
0.147 | 4 | 6.72 | inactive | PIGB | 2
-0.0644 | 2.51 | 4.06 | inactive | PIGB | 3
0.242 | 4.67 | 6.32 | inactive | NUP133 | 1
-0.195 | 1.6 | 4.8 | inactive | NUP133 | 2
0.641 | 7.48 | 5.52 | inactive | NUP133 | 3
1.05 | 10.4 | 8.82 | inactive | IDH3G | 1
-0.374 | 0.337 | 4.33 | inactive | IDH3G | 2
-0.622 | -1.41 | 5.15 | inactive | IDH3G | 3
-0.511 | -0.626 | 5.4 | inactive | MAP3K1 | 1
-0.822 | -2.82 | 4.46 | inactive | MAP3K1 | 2
-0.798 | -2.65 | 3.09 | inactive | MAP3K1 | 3
0.279 | 4.93 | 3.9 | inactive | URM1 | 1
4.53 | 34.8 | 15.7 | inactive | URM1 | 2
-0.668 | -1.74 | 2.94 | inactive | URM1 | 3
-0.377 | 0.314 | 3.97 | inactive | TSPAN13 | 1
-0.368 | 0.38 | 4.69 | inactive | TSPAN13 | 2
-0.106 | 2.22 | 3.95 | inactive | TSPAN13 | 3
0.944 | 9.61 | 7.14 | inactive | SSU72P1 | 1
0.0383 | 3.24 | 4.3 | inactive | SSU72P1 | 2
-0.668 | -1.73 | 2.74 | inactive | SSU72P1 | 3
2.28 | 19 | 10.9 | inactive | AGVR6190 (retired record) | 1
1.86 | 16 | 9.04 | inactive | AGVR6190 (retired record) | 2
-0.512 | -0.635 | 2.96 | inactive | AGVR6190 (retired record) | 3
-0.168 | 1.79 | 4.49 | inactive | ZNF219 | 1
1.72 | 15 | 12.8 | inactive | ZNF219 | 2
-0.711 | -2.04 | 3.49 | inactive | ZNF219 | 3
3.36 | 26.6 | 14.5 | inactive | ADCY6 | 1
-0.426 | -0.0305 | 3.98 | inactive | ADCY6 | 2
-0.186 | 1.66 | 5.28 | inactive | ADCY6 | 3
-0.207 | 1.51 | 5.62 | inactive | GALNT13 | 1
-0.734 | -2.19 | 3.65 | inactive | GALNT13 | 2
-0.882 | -3.24 | 4.17 | inactive | GALNT13 | 3

Limited to “G2 cells, % of GMNN control”, for 7 of the entries above:
TESC #1	18.3
TESC #2	22.1
TESC #3	2.21
KBTBD3 #1	-2.05
KBTBD3 #2	0.513
KBTBD3 #3	0.961
ACO1 #1	10.4
